# From US11135186B2, “Regulators of the endoplasmic reticulum proteostasis network” (The Scripps Research Institute, priority 2015, dated 2021)
# Assay: Promiscuity: number of screening assays in which the compound was found active
row,Structure (SMILES),Promiscuity (number of screening assays in which the compound was found active)
1,CCCCNNC(=O)c1ccc(Br)cc1 [Compound 5],1 out of 31
2,Cc1ccc(O)c(N/C=C/C(=O)c2ccc(F)cc2)c1 [Compound 132],2 out of 32
3,CCCc1cc(C(=O)Nc2cc(C)ccc2O)no1 [Compound 145],1 out of 31
4,Cc1ccc(O)c(NC(=O)CCc2ccccc2)c1 [Compound 147],1 out of 32
5,O=C1N/C(=C\c2ccc(O)cc2)C(=O)N1c1cccc(Cl)c1 [Compound 238],2 out of 31
6,Cc1cc(C)c(OCC(=O)N/N=C/c2ccc(Cl)c(O)c2)c(Br)c1 [Compound 258],1 out of 31
7,O=[N+]([O-])c1ccc(N/N=C/c2ccccc2O)cc1 [Compound 263],1 out of 31
